Reference: US4748154A (Takeda Chemical Industries, Ltd., priority 1985, dated 1988)

Assay: general procedure: solution-phase peptide synthesis; DCC/HOBt; DCC/HONB (ONB active esters)
Details: coupling step

Row | Substance | step yield [%]
1 | Boc--Asn--Cys(MBzl)--D--Pro--D--Lys(Z)--oBzl | 69.7
2 | Boc--Asn--Cys(MBzl)--Gly--D--Lys(Z)--OBzl | 99.2
3 | Boc--Asn--Cys(MBzl)--Sar--D--Lys(Z)--OBzl | 95.9
4 | pGlu--Asn--Cys(MBzl)--Ala--D--Lys(Z)--OBzl | 85.7
5 | pGlu--Asn--Cys(MBzl)--D--Pro--D--Lys(Z)--OBzl | 64.6
6 | pGlu--Asn--Cys(MBzl)--Gly-D-Lys(Z)--OBzl | 81.7
7 | pGlu--Asn--Cys(MBzl)--Pro--D--Lys(Z)--Gly--NH--Bu^t | 38.4
8 | pGlu--Asn--Cys(MBzl)--Pro--D--Lys(Z)--Gly--NHCH3 | 62.2
9 | pGlu--Asn--Cys(MBzl)--Pro--D--Lys(Z)--Gly--OBzl | 66.2
10 | pGlu--Asn--Cys(MBzl)--Pro--D--Lys(Z)--Leu--OBzl | 68.1
11 | pGlu--Asn--Cys(MBzl)--Pro--D--Lys(Z)--NH--Et | 56.7
12 | pGlu--Asn--Cys(MBzl)--Pro--D--Lys(Z)--NH--ada | 75.6
13 | pGlu--Asn--Cys(MBzl)--Pro--D--Lys(Z)--NHBu^t | 73.2
14 | pGlu--Asn--Cys(MBzl)--Pro--D--Lys(Z)--OBzl | 80.8
15 | pGlu--Asn--Cys(MBzl)--Pro--D--Lys(Z)--Phe--OBzl | 56.6
16 | pGlu--Asn--Cys(MBzl)--Pro--OH | 93.0
17 | pGlu--Asn--Cys(MBzl)--Sar--D--Lys(Z)--OBzl | 81.5
18 | pGlu--Asn-Cys(MBzl)--Pro--D--Lys(Z)--NH2 | 66.2
